Reference: the supplement of paper PMC9744312
Where a name gives a salt, the structure may show the parent alone. This is one part of the list. The data scatter; read single values as rough.

Each compound was assayed on Peyronie's disease tunica albuginea primary fibroblasts (assay: inhibition of TGF-beta1-induced alpha-SMA expression (myofibroblast transformation), relative to TGF-beta1-only and untreated controls; higher = stronger inhibition of myofibroblast transformation). Settings: 10 µM; TGF-beta1 10 ng/mL; 72 h.

Q: Which “inhibition of TGF-beta1-induced alpha-SMA expression” value (“inhibition” below) does the source give for CC(=O)/N=c1/sc(S(N)(=O)=O)nn1C [Methazolamide] here?
A: 29.9%

Q: Cc1ccc(C(=O)N(CCCN)[C@@H](c2nc3cc(Cl)ccc3c(=O)n2Cc2ccccc2)C(C)C)cc1 was tested. Which “inhibition” value did it give?
A: > 100%

Q: With C[C@@H](Oc1cc(-c2cnn(C3CCNCC3)c2)cnc1N)c1c(Cl)ccc(F)c1Cl as the compound, how does the “inhibition” value read?
A: 91.3%

Q: Which “inhibition” value does the source give for Cc1cc(Nc2ncc(Cl)c(Nc3ccccc3S(=O)(=O)C(C)C)n2)c(OC(C)C)cc1C1CCNCC1 [Ceritinib (LDK378)] here?
A: > 100%

Q: Which “inhibition” value does the source give for COCCCOc1ccnc(C[S+]([O-])c2nc3ccccc3[nH]2)c1C (stereo not drawn) [Rebeprazole sodium] here?
A: -35.6%

Q: For COCCCOc1ccnc(C[S+]([O-])c2nc3ccccc3[nH]2)c1C (stereo not drawn) [Rabeprazole], which “inhibition” value is on record?
A: 13.1%

Q: CNCC[C@@H](Oc1ccccc1C)c1ccccc1 [Atomoxetine HCl] was tested. Which “inhibition” value did it give?
A: 25.6%

Q: For CC(C)(O)CNc1nc(Nc2ccnc(C(F)(F)F)c2)nc(-c2cccc(C(F)(F)F)n2)n1 [Enasidenib (AG-221)], which “inhibition” value is on record?
A: -13.3%

Q: How did the “inhibition” value turn out when Cc1ccc(C(=O)C(C)CN2CCCCC2)cc1 (stereo not drawn) [Tolperisone HCl] was run?
A: -2.63%

Q: How did the “inhibition” value turn out when CC[C@]1(O)C[C@@H]2CN(CCc3c([nH]c4ccccc34)[C@@](C(=O)OC)(c3cc4c(cc3OC)N(C)[C@H]3[C@@](O)(C(=O)OC)[C@H](OC(C)=O)[C@]5(CC)C=CCN6CC[C@]43[C@@H]65)C2)C1 [Vinblastine sulfate] was run?
A: > 100%

Q: CCc1cc(/C(C)=N/OCc2ccc(C3CCCCC3)c(C(F)(F)F)c2)ccc1CN1CC(C(=O)O)C1 [BAF312 (Siponimod)] was tested. Which “inhibition” value did it give?
A: 19.5%

Q: For Nc1cc(N2CCCCC2)nc(N)[n+]1OS(=O)(=O)[O-] [Minoxidil sulphate], which “inhibition” value is on record?
A: -0.653%

Q: For CC(C)(C)C(O)/C=C/c1ccc2c(c1)OCO2 (stereo not drawn) [Stiripentol], which “inhibition” value is on record?
A: 7.39%

Q: With Cc1c(C)c2c(c(C)c1O)CC[C@@](C)(CCC[C@H](C)CCC[C@H](C)CCCC(C)C)O2 [Vitamin E] as the compound, how does the “inhibition” value read?
A: 16.9%

Q: With CCN(CCCc1ccccc1)CCCc1ccccc1 [Alverine Citrate] as the compound, how does the “inhibition” value read?
A: 21.6%

Q: How did the “inhibition” value turn out when CC(CCc1ccc(O)cc1)NCC(O)c1ccc(O)cc1 (stereo not drawn) [Ractopamine HCl] was run?
A: -0.844%

Q: Which “inhibition” value does the source give for COc1cc2c(cc1OC)CN(CCc1ccc(NC(=O)c3cccc4c(=O)c5cccc(OC)c5[nH]c34)cc1)CC2 here?
A: 15.4%

Q: Which “inhibition” value does the source give for O=P(O)(O)C(O)(Cc1cccnc1)P(=O)(O)O [Risedronate Sodium] here?
A: 7.37%

Q: With CCN(CC)C(=O)N1CCN(C)CC1 [Diethylcarbamazine citrate] as the compound, how does the “inhibition” value read?
A: 28.1%

Q: O=C(O)c1cc(O)c(O)c(O)c1 [Gallic acid] was tested. Which “inhibition” value did it give?
A: 15.6%

Q: O=S(=O)(O)CCSSCCS(=O)(=O)O [Dimesna] was tested. Which “inhibition” value did it give?
A: 40.2%

Q: Which “inhibition” value does the source give for CN1CCC[C@H]1c1cccnc1 [Nicotine Ditartrate] here?
A: -3.14%

Q: For CO[C@H]1C(=O)[C@]2(C)[C@@H](OC)C[C@H]3OC[C@@]3(OC(C)=O)[C@H]2[C@H](OC(=O)c2ccccc2)[C@]2(O)C[C@H](OC(=O)[C@H](O)[C@@H](NC(=O)OC(C)(C)C)c3ccccc3)C(C)=C1C2(C)C [Cabazitaxel], which “inhibition” value is on record?
A: 78.1%

Q: For CCCC(C(=O)OCCN(CC)CC)(c1ccccc1)c1ccccc1 [Proadifen HCl], which “inhibition” value is on record?
A: 13.3%

Q: With CCC(=O)NC[C@@H]1C[C@H]1c1cccc2c1CCO2 [Tasimelteon] as the compound, how does the “inhibition” value read?
A: 61.7%

Q: Which “inhibition” value does the source give for Clc1ccc(COC(Cn2ccnc2)c2ccc(Cl)cc2Cl)cc1 (stereo not drawn) [Econazole nitrate] here?
A: 11.2%

Q: With Clc1ccc(COC(Cn2ccnc2)c2ccc(Cl)cc2Cl)cc1 (stereo not drawn) [Econazole] as the compound, how does the “inhibition” value read?
A: -10.2%

Q: With Clc1ccccc1C(c1ccccc1)(c1ccccc1)n1ccnc1 [Clotrimazole] as the compound, how does the “inhibition” value read?
A: 18.5%

Q: How did the “inhibition” value turn out when NC(=O)NO [Hydroxyurea] was run?
A: 0.309%

Q: For O=C(O)c1cc(=O)c2c(OCC(O)COc3cccc4oc(C(=O)O)cc(=O)c34)cccc2o1 [Disodium Cromoglycate], which “inhibition” value is on record?
A: 81.6%

Q: How did the “inhibition” value turn out when CC(=O)OC(C)C[N+](C)(C)C (stereo not drawn) [Methacholine chloride] was run?
A: -6.86%

Q: Which “inhibition” value does the source give for CCCCOc1ccc(CC(=O)NO)cc1 [Bufexamac] here?
A: 6.24%

Q: With Oc1c(Cl)cc(Cl)cc1Sc1cc(Cl)cc(Cl)c1O [Bithionol] as the compound, how does the “inhibition” value read?
A: 37.6%

Q: Which “inhibition” value does the source give for NC[C@H]1CC[C@H](C(=O)O)CC1 [Tranexamic Acid] here?
A: 23.3%

Q: How did the “inhibition” value turn out when Cc1ccc(O)c([C@H](CCN(C(C)C)C(C)C)c2ccccc2)c1 [Tolterodine tartrate] was run?
A: 10.3%

Q: For Nc1nc(=O)c2c([nH]1)NCC(CNc1ccc(C(=O)N[C@@H](CCC(=O)O)C(=O)O)cc1)N2C=O (stereo partly drawn) [Leucovorin Calcium Pentahydrate], which “inhibition” value is on record?
A: -13.9%

Q: With Nc1nc(=O)c2c([nH]1)NCC(CNc1ccc(C(=O)N[C@@H](CCC(=O)O)C(=O)O)cc1)N2C=O (stereo partly drawn) [Calcium folinate] as the compound, how does the “inhibition” value read?
A: 29.3%

Q: With Cc1c(O)cccc1C(=O)N[C@@H](CSc1ccccc1)[C@H](O)CN1C[C@H]2CCCC[C@H]2C[C@H]1C(=O)NC(C)(C)C [Nelfinavir Mesylate] as the compound, how does the “inhibition” value read?
A: 42.5%

Q: How did the “inhibition” value turn out when CN(C)CCC(c1ccccc1)c1ccccn1 (stereo not drawn) [Pheniramine Maleate] was run?
A: -11.9%

Q: For CCOc1ccc(Cc2cc([C@@H]3O[C@H](CO)[C@@H](O)[C@H](O)[C@H]3O)ccc2Cl)cc1 [Dapagliflozin propanediol monohydrate], which “inhibition” value is on record?
A: 7.07%

Q: For CCOc1ccc(Cc2cc([C@@H]3O[C@H](CO)[C@@H](O)[C@H](O)[C@H]3O)ccc2Cl)cc1 [Dapagliflozin], which “inhibition” value is on record?
A: 30.9%

Q: CN(C)CCN1C(=O)c2cccc3cc(N)cc(c23)C1=O [Amonafide] was tested. Which “inhibition” value did it give?
A: 24.3%

Q: O[C@@H]1CO[C@H]2[C@@H]1OC[C@@H]2O [Isosorbide] was tested. Which “inhibition” value did it give?
A: -56.1%

Q: With CC1=C(C(=O)OCCN(Cc2ccccc2)c2ccccc2)C(c2cccc([N+](=O)[O-])c2)C(P2(=O)OCC(C)(C)CO2)=C(C)N1 (stereo not drawn) [Efonidipine] as the compound, how does the “inhibition” value read?
A: 21.7%

Q: With CCCNS(=O)(=O)Nc1ncnc(OCCOc2ncc(Br)cn2)c1-c1ccc(Br)cc1 [Macitentan] as the compound, how does the “inhibition” value read?
A: -17.7%

Q: Which “inhibition” value does the source give for CCOc1nc2cccc(C(=O)OC(C)OC(=O)OC3CCCCC3)c2n1Cc1ccc(-c2ccccc2-c2nn[nH]n2)cc1 (stereo not drawn) [Candesartan Cilexetil] here?
A: 16.3%

Q: With Nc1ccc(S(N)(=O)=O)cc1 [Sulfanilamide] as the compound, how does the “inhibition” value read?
A: 21.8%

Q: CCN1CCC[C@H]1CNC(=O)c1cc(S(N)(=O)=O)ccc1OC [Levosulpiride] was tested. Which “inhibition” value did it give?
A: 16.4%

Q: Which “inhibition” value does the source give for NCCNc1ccc(NCCN)c2c1C(=O)c1ccncc1C2=O [Pixantrone Maleate] here?
A: 92.3%

Q: How did the “inhibition” value turn out when O=c1[nH]c(=O)n([C@H]2C[C@H](O)[C@@H](CO)O2)cc1/C=C/Br [Brivudine] was run?
A: 16.2%

Q: Which “inhibition” value does the source give for CCC(C)(C)c1ccc(CC(C)CN2C[C@@H](C)O[C@@H](C)C2)cc1 (stereo partly drawn) [Amorolfine HCl] here?
A: 13.7%

Q: Which “inhibition” value does the source give for CCOC(=O)c1ccc(C#Cc2ccc3c(c2)C(C)(C)CCS3)nc1 [Tazarotene] here?
A: 8.3%

Q: With CC(C)(C)C#Cc1cc(N(C(=O)[C@H]2CC[C@H](C)CC2)[C@H]2CC[C@H](O)CC2)c(C(=O)O)s1 [Lomibuvir (VX-222, VCH-222)] as the compound, how does the “inhibition” value read?
A: 10.3%

Q: For CC[C@]12CCCN3CCc4c(n(c5ccccc45)[C@@](O)(C(=O)OC)C1)[C@@H]32 [Vincamine], which “inhibition” value is on record?
A: 26.5%

Q: With S=c1nc[nH]c2nc[nH]c12 [6-Mercaptopurine (6-MP) Monohydrate] as the compound, how does the “inhibition” value read?
A: 10.2%

Q: How did the “inhibition” value turn out when CCCCCCCCCCCCCCCC[N+](C)(C)C [Cetrimonium Bromide (CTAB)] was run?
A: > 100%

Q: O=C(O)CCc1nc2ccccc2[nH]1 [Procodazole] was tested. Which “inhibition” value did it give?
A: 12%

Q: With CCCc1nc(C(C)(C)O)c(C(=O)OCc2oc(=O)oc2C)n1Cc1ccc(-c2ccccc2-c2nnn[nH]2)cc1 [Olmesartan Medoxomil] as the compound, how does the “inhibition” value read?
A: -17.9%

Q: Cn1c(=O)c2c(ncn2CC(O)CO)n(C)c1=O (stereo not drawn) [Dyphylline] was tested. Which “inhibition” value did it give?
A: -6.45%

Q: With Nc1nccs1 [Aminothiazole] as the compound, how does the “inhibition” value read?
A: 14.9%

Q: Which “inhibition” value does the source give for CC(C)C[C@H](N)C(=O)O [L-Leucine] here?
A: 0.755%

Q: With NC(=O)c1cccnc1 [Nicotinamide (Vitamin B3)] as the compound, how does the “inhibition” value read?
A: 10.5%

Q: With CC(C)(Oc1ccc(C2CC2(Cl)Cl)cc1)C(=O)O (stereo not drawn) [Ciprofibrate] as the compound, how does the “inhibition” value read?
A: 18.7%

Q: How did the “inhibition” value turn out when NC(=O)[C@@H](CCC(F)(F)F)N(Cc1ccc(-c2ncon2)cc1F)S(=O)(=O)c1ccc(Cl)cc1 was run?
A: 55%

Q: CC1=C(C(=O)O)N2C(=O)[C@@H](NC(=O)[C@H](N)c3ccc(O)cc3)[C@H]2SC1 [Cefadroxil hydrate] was tested. Which “inhibition” value did it give?
A: 8.43%

Q: Which “inhibition” value does the source give for C=CCN1CCCC1CNC(=O)c1cc2nn[nH]c2cc1OC (stereo not drawn) [Alizapride HCl] here?
A: -17%

Q: CCOC(=O)C1=C(C)NC(C)=C(C(=O)OC)C1c1cccc([N+](=O)[O-])c1 (stereo not drawn) [Nitrendipine] was tested. Which “inhibition” value did it give?
A: 39.6%

Q: How did the “inhibition” value turn out when CCn1cc(C(=O)O)c(=O)c2cc(F)c(N3CCNCC3)cc21 [Norfloxacin] was run?
A: 11.8%

Q: With O=C(c1ccc(OCCN2CCCCC2)cc1)c1c(-c2ccc(O)cc2)sc2cc(O)ccc12 [Raloxifene HCl] as the compound, how does the “inhibition” value read?
A: 8.26%

Q: How did the “inhibition” value turn out when [OH][Al]([OH])[OH] [Aluminium hydroxide] was run?
A: 6.45%

Q: How did the “inhibition” value turn out when CC(CN1c2ccccc2Sc2ccccc21)N(C)C (stereo not drawn) [Promethazine HCl] was run?
A: 30.8%

Q: For CNC(=O)c1ccccc1Sc1ccc2c(/C=C/c3ccccn3)n[nH]c2c1 [Axitinib], which “inhibition” value is on record?
A: -165%

Q: Which “inhibition” value does the source give for NS(=O)(=O)c1cc2c(cc1C(F)(F)F)NC(Cc1ccccc1)NS2(=O)=O (stereo not drawn) [Bendroflumethiazide] here?
A: 15.8%

Q: With S=P(N1CC1)(N1CC1)N1CC1 [Thiotepa] as the compound, how does the “inhibition” value read?
A: -8.84%

Q: Which “inhibition” value does the source give for CCN1CCCC1CNC(=O)c1cc(S(=O)(=O)CC)c(N)cc1OC (stereo not drawn) [Amisulpride] here?
A: 45.1%

Q: How did the “inhibition” value turn out when CC(C)(CO)C(O)C(=O)NCCCO (racemic) [DL-Panthenol] was run?
A: 15.1%

Q: Nc1nc(N)nc(-c2cc(Cl)ccc2Cl)n1 [Irsogladine] was tested. Which “inhibition” value did it give?
A: 7.66%

Q: Which “inhibition” value does the source give for CN1CCN(c2ccc(C(=O)Nc3n[nH]c4ccc(Cc5cc(F)cc(F)c5)cc34)c(NC3CCOCC3)c2)CC1 [Entrectinib (RXDX-101)] here?
A: > 100%
